From patent publication US20070099891A1, “Medicinal compositions and combinations” (priority 2003, published 2007) come the findings set out here.

For one experiment, the system named is HepG2 cell. As to the kind of experiment: LDL binding, uptake and degradation activity in cultured human hepatic cell line HepG2 ([125I]LDL). Type of experiment: cell-based. The conditions noted are these: for Uptake Amounts: mean ± standard error, 6 experiments. On the procedure: The cultured human hepatic cell line HepG2 cell was purchased from the Dainippon Pharmaceuticals Co. Ltd. (Osaka, Japan). The determinations of LDL binding, uptake and degradation activity were performed according to a prior report (Method in Enzymology, 98, 241-255, 1983). Cells were seeded in a 24 well plate and were incubated in the Dulbecco's modified Eagle/F-12 (DMEM/F-12) medium containing 10% fetal bovine serum and antibiotics at 37° C. for two days. After washing the cells, a DMEM/F-12 medium containing 10% lipoprotein-removed serum, the test substrate and the antibiotics was added and the cells were incubated at 37° C. for 19 hours. After adding [^125I]LDL, the cells were incubated at 37° C. for another 5 hours. The culture supernatant was collected and trichloroacetic acid was added thereto, and then it was statically kept for 30 minutes or more at 4° C. After centrifuging (700×g, 4° C., 15 min.), the supernatant was separated and sodium iodide was added thereto, and further hydrogen peroxide was added. After treating the mixture at room temperature for 5 min., chloroform was added and the mixture was stirred. After centrifuging (700×g, 4° C., 5 min.), the radioactivity in the supernatant was measured by a gamma counter, and then the data thus obtained was evaluated as an amount of degradation of LDL. Separately, after washing the cells thoroughly, a dissociation buffer (50 mM NaCl, 10 mM 2-[4-(2-hydroxyethyl)-1-piperadinyl]ethane sulfonic acid (HEPES, pH 7.4), 10 mg/mL heparin) was added and then the cells were statically kept at 4° C. for 60 min. or more. […] Furthermore, 1N sodium hydroxide was added to the remaining cells and the mixture was reacted for more than 10 min. to dissolve the cells. […] On the other hand, the amounts of non-specific degradation, binding and uptake were evaluated by coexisting an excess of non-labeled LDL on addition of [^125I] LDL, while the amounts of specific degradation, binding and uptake were obtained by subtracting the amounts of non-specific degradation, binding and uptake from the total amounts of degradation, binding and uptake and further calibrating with the amounts of protein. For test substrate, N-[1-butyl-4-[3-[3-(hydroxy)propoxy]phenyl]-1,2-dihydro-2-oxo-1,8-naphthyridine-3-yl]-N′-(2,6-diisopropyl-4-aminophenyl)urea (hereinafter, referred to as compound A) and atorvastatin were used.

In experiment [1] the test system is rabbit with endogenous hyperlipemia caused by a casein diet load. As to the kind of experiment: Blood cholesterol lowering action in endogenous hyperlipemia rabbit (casein diet). Type of experiment: in vivo, New Zealand White rabbit. To be noted: for plasma LDL cholesterol / plasma total cholesterol: mean ± standard error. On the procedure: 8 weeks old male New Zealand White rabbit were bred for 12 days with ad libitum water and feeding conditions (rabbit·guinea pig breeding feed RC4, Oriental Yeast Co., Ltd., Tokyo, Japan). Thereafter, the diet was replaced with the casein diet containing 27% casein (Oriental Yeast Co., Ltd., Tokyo, Japan), and then the restricted feeding to the 100 g per 3 kg weight was performed for one week. At this point, the blood was collected via auricular veins and the plasma total cholesterol amounts was measured and then these rabbits were divided such that the mean of the weight and the plasma total cholesterol were equal approximately. Thereafter, continuing the restricted feeding of casein diet, the each agent was administered in the following conditions for 3 weeks: compound A (1 mg/kg), atorvastatin (1 and 3 mg/kg), a combination of compound A (1 mg/kg) and atorvastatin (1 mg/kg), and a combination of compound A (1 mg/kg) and atorvastatin (3 mg/kg). Each agent was dissolved in propylene glycol containing 0.5% polyoxyethylenesorbitan monooleate (Tween 80) and then these were administered orally. On the other hand, for control group, the solvent (propylene glycol comprising 0.5% Tween 80) was administered orally. At one day after final administration, the blood was collected and plasma total cholesterol was measured and also the lipoprotein was fractioned according to the differential ultracentrifugation method (Nobuhiro, Yamada, Yasushi Sato edit.: Study strategy of Arteriosclerotic+Hyperlipemia, 63-69, 1996, Shujunsha Co. Ltd.), and then the amounts of cholesterol in the fraction of LDL were measured. The amount of total cholesterol in plasma and the amount of cholesterol in LDL fraction were determined by using an automatic biochemical analyzer (Biochemical Analyzer CHEM 1, Bayer Corporation, NY, USA).

For the compound `CC(C)c1c(C(=O)Nc2ccccc2)c(-c2ccccc2)c(-c2ccc(F)cc2)n1CC[C@@H](O)C[C@@H](O)CC(=O)O` [Atorvastatin, atorvastatin], in the experiment with HepG2 cell (atorvastatin 0.1 to 10 μM), the “amounts of binding, uptake and degradation of LDL (in words)” value was “increased”. In addition, the “Uptake Amounts” value in the experiment on HepG2 cell (single agent 0.1 μM) was 1043.4 ± 16.7 ng/mg protein; in the experiment with HepG2 cell (single agent 1 μM) it was 1033.4 ± 52.8 ng/mg protein; with HepG2 cell (single agent 10 μM) it was 1145.0 ± 50.9 ng/mg protein. Also, the “plasma LDL cholesterol” value in experiment [1] (1 mg/kg orally for 3 weeks) was determined as 62 ± 18 mg/dL; in experiment [1] (3 mg/kg orally for 3 weeks), 59 ± 16 mg/dL. The plasma total cholesterol turned out to be 115 ± 18 mg/dL in experiment [1] (1 mg/kg orally for 3 weeks) and 122 ± 15 mg/dL in experiment [1] (3 mg/kg orally for 3 weeks). In addition, in experiment [1] (1 mg/kg, compared to control), the “plasma total cholesterol lowering action and plasma LDL cholesterol lowering action (in words)” value is on record as “did not show significant effects”.
